Measured values reported in publication PMC12311110.
No constants are given. Whether binding was seen depends on the method and setting. Binding seen in cells or lysates may run through a third protein. Some results given as binding are weak or reduced against the parent protein; the word gives no strength. Tags and fused reporters may be left off the sequences shown.

Biological target: T1, GFP-TBC1D1 (UniProt Q86TI0)
T1 sequence: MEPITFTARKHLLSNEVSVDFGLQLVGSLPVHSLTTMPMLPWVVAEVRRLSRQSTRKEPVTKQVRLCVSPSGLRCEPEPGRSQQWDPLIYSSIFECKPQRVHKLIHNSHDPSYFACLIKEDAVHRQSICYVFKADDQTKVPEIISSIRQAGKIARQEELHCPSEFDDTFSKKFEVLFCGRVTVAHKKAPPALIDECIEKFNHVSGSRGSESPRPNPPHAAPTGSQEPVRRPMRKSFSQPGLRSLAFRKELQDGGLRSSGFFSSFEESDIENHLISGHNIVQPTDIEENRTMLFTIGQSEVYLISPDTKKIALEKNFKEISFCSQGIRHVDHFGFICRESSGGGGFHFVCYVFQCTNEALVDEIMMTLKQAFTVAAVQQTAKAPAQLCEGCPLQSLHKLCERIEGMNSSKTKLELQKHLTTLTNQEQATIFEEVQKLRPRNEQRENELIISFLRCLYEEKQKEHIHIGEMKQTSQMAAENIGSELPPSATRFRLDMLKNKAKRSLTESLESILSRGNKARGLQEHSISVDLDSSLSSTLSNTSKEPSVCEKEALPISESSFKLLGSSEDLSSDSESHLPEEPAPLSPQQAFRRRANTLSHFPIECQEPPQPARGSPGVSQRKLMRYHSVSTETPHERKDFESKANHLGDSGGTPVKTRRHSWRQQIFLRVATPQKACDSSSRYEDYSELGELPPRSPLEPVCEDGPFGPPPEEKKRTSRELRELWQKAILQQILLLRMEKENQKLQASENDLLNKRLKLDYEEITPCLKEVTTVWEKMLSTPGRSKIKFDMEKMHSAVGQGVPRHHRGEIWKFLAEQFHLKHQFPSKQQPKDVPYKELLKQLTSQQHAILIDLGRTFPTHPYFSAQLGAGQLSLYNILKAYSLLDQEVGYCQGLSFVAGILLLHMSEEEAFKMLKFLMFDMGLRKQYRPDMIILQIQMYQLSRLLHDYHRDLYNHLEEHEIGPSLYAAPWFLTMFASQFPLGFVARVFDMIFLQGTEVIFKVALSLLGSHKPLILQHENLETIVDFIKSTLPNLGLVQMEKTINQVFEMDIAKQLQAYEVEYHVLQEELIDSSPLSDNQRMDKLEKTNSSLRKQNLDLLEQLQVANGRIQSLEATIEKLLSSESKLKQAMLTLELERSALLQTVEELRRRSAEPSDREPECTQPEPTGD
Assay: co-IP; GFP-trap beads, lysate of transiently transfected HEK293T; IP buffer 50 mM Tris-HCl, 0.5% NP-40; 1 h at 4 °C; western blot; GFP-TBC1D1 alone or co-expressed with mCherry-TBC1D4

binding: binds
B1: mCherry-TBC1D4 (protein, UniProt O60343 1-1298)
chain: MEPPSCIQDEPFPHPLEPEPGVSAQPGPGKPSDKRFRLWYVGGSCLDHRTTLPMLPWLMAEIRRRSQKPEAGGCGAPAAREVILVLSAPFLRCVPAPGAGASGGTSPSATQPNPAVFIFEHKAQHISRFIHNSHDLTYFAYLIKAQPDDPESQMACHVFRATDPSQVPDVISSIRQLSKAAMKEDAKPSKDNEDAFYNSQKFEVLYCGKVTVTHKKAPSSLIDDCMEKFSLHEQQRLKIQGEQRGPDPGEDLADLEVVVPGSPGDCLPEEADGTDTHLGLPAGASQPALTSSRVCFPERILEDSGFDEQQEFRSRCSSVTGVQRRVHEGSQKSQPRRRHASAPSHVQPSDSEKNRTMLFQVGRFEINLISPDTKSVVLEKNFKDISSCSQGIKHVDHFGFICRESPEPGLSQYICYVFQCASESLVDEVMLTLKQAFSTAAALQSAKTQIKLCEACPMHSLHKLCERIEGLYPPRAKLVIQRHLSSLTDNEQADIFERVQKMKPVSDQEENELVILHLRQLCEAKQKTHVHIGEGPSTISNSTIPENATSSGRFKLDILKNKAKRSLTSSLENIFSRGANRMRGRLGSVDSFERSNSLASEKDYSPGDSPPGTPPASPPSSAWQTFPEEDSDSPQFRRRAHTFSHPPSSTKRKLNLQDGRAQGVRSPLLRQSSSEQCSNLSSVRRMYKESNSSSSLPSLHTSFSAPSFTAPSFLKSFYQNSGRLSPQYENEIRQDTASESSDGEGRKRTSSTCSNESLSVGGTSVTPRRISWRQRIFLRVASPMNKSPSAMQQQDGLDRNELLPLSPLSPTMEEEPLVVFLSGEDDPEKIEERKKSKELRSLWRKAIHQQILLLRMEKENQKLEASRDELQSRKVKLDYEEVGACQKEVLITWDKKLLNCRAKIRCDMEDIHTLLKEGVPKSRRGEIWQFLALQYRLRHRLPNKQQPPDISYKELLKQLTAQQHAILVDLGRTFPTHPYFSVQLGPGQLSLFNLLKAYSLLDKEVGYCQGISFVAGVLLLHMSEEQAFEMLKFLMYDLGFRKQYRPDMMSLQIQMYQLSRLLHDYHRDLYNHLEENEISPSLYAAPWFLTLFASQFSLGFVARVFDIIFLQGTEVIFKVALSLLSSQETLIMECESFENIVEFLKNTLPDMNTSEMEKIITQVFEMDISKQLHAYEVEYHVLQDELQESSYSCEDSETLEKLERANSQLKRQNMDLLEKLQVAHTKIQALESNLENLLTRETKMKSLIRTLEQEKMAYQKTVEQLRKLLPADALVNCDLLLRDLNCNPNNKAKIGNKP
